The record followed here is PubChem BioAssay AID342 (DTP/NCI, 2004).

The list shows only some results of the screen, not a fair sample: it is rich in T/C values a quarter to a half above the control, in often repeated tests (any T/C) and in doses without a T/C. Further doses and runs are listed elsewhere. T/C gives the treated animals as a percentage of the vehicle group. Schedule codes are those of the source, read here as Q, the interval in days (D) or hours (H), X, the number of doses. Some entries hold several experiments; their values stand side by side, smallest first. Some doses have a count of surviving animals in place of a T/C: the source holds a T/C of zero for them, seemingly a mark for toxic or unscored doses. Survivors were counted at the toxicity check, usually on the fifth day, unless a day is given; later deaths do not show. Some schedules carry Z or #; the key to these is not given.

In this assay the test system is Swiss mice, Sarcoma 180 sc, mean tumor weight T/C. As to the kind of experiment: NCI In Vivo Anticancer Drug Screen. Data for tumor model Sarcoma 180 (subcutaneous) in Swiss mice. The following applies: T/C endpoint: mean tumor weight, higher T/C = larger tumour; for T/C: evaluated on day 8. Put shortly: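 Antitumor activity is assessed in mice with transplantable tumors. Treated (T) and vehicle control (C) groups are compared on survival or tumor size.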

Where [1] appears, read: dose: 27.0 mg/kg/injection, schedule: Q01DX007 (ip), vehicle: carboxymethylcellulose (CMC).
Where [2] appears, read: dose: 40.0 mg/kg/injection, schedule: Q01DX007 (ip), vehicle: carboxymethylcellulose (CMC).
Where [3] appears, read: dose: 250.0 mg/kg/injection, schedule: Q01DX007 (ip), vehicle: other.

In the case of `CCOC(=O)Nc1ccc2c(c1)/C(=N\NC(N)=S)c1ccccc1-2`, the survivor count is, setting by setting: (dose: 110.0 mg/kg/injection, schedule: Q01DX007 (ip), vehicle: carboxymethylcellulose (CMC)) 2 of 6; (dose: 165.0 mg/kg/injection, schedule: Q01DX007 (ip), vehicle: carboxymethylcellulose (CMC)) 2 of 6; (dose: 250.0 mg/kg/injection, schedule: Q01DX007 (ip), vehicle: carboxymethylcellulose (CMC)) 1 of 6; (dose: 375.0 mg/kg/injection, schedule: Q01DX007 (ip), vehicle: carboxymethylcellulose (CMC)) 0 of 6.
With `Cc1cc2nc(Cc3nc4cc(C)c(C)cc4[nH]3)[nH]c2cc1C`, the T/C is 132 % of control under setting [1] and 144 % of control under setting [2].
Turning to `Cc1cc(N(CCCl)CCCl)ccc1N=Nc1ccccc1C(=O)O`, the survivor count is 4 of 7 (dose: 18.0 mg/kg/injection, schedule: Q01DX007 (ip), vehicle: carboxymethylcellulose (CMC)); 2 of 6 (dose: 25.0 mg/kg/injection, schedule: Q01DX007 (ip), vehicle: carboxymethylcellulose (CMC)); 1 of 7 under setting [1]; 1 of 7 under setting [2].
In the case of `O=[N+]([O-])c1ccc2c(N=Nc3c(O)ccc4ccccc34)c(O)cc(S(=O)(=O)O)c2c1`, the survivor count is 3 of 6 (dose: 330.0 mg/kg/injection, schedule: Q01DX007 (ip), vehicle: saline); 0 of 6 and 3 of 6 (dose: 500.0 mg/kg/injection, schedule: Q01DX007 (ip), vehicle: saline); 0 of 6 (dose: 750.0 mg/kg/injection, schedule: Q01DX007 (ip), vehicle: saline).
Take `COc1ccc(C(=O)/C(Br)=C/C(=O)O)cc1`: under “dose: 50.0 mg/kg/injection, schedule: Q01DX007 (ip), vehicle: water”, the survivor count was 5 of 8.
Consider `CCCC(=O)OCC1OC(n2cnc3c(=S)nc(N)[nH]c32)C(OC(=O)CCC)C1OC(=O)CCC` (stereo not drawn), for which the T/C (dose: 14.0 mg/kg/injection, schedule: Q01DX007 (ip), vehicle: carboxymethylcellulose (CMC)) is 21, 33, 43, 57 % of control. The survivor count is given as 5 of 8 (dose: 43.0 mg/kg/injection, schedule: Q01DX007 (ip), vehicle: carboxymethylcellulose (CMC)) and 1 of 6 (dose: 47.0 mg/kg/injection, schedule: Q01DX007 (ip), vehicle: carboxymethylcellulose (CMC)).
On to `COc1ccc2c3c(c4cc(OC)c(OC)cc4c2c1)C[C@H]1CCCCN1C3`, for which the survivor count is, setting by setting: (dose: 2.0 mg/kg/injection, schedule: Q01DX007 (ip), vehicle: carboxymethylcellulose (CMC)) 0 of 6; (dose: 3.0 mg/kg/injection, schedule: Q01DX007 (ip), vehicle: carboxymethylcellulose (CMC)) 0 of 5.
`Nc1ncnc2c1ccn2C1OC(CO)C(O)C1O` (stereo not drawn): the survivor count (dose: 1.25 mg/kg/injection, schedule: Q#A X014 (ip), vehicle: carboxymethylcellulose (CMC)) is recorded as 3 of 6.
`CN(C)c1ccc(C(C#N)C(C#N)c2ccccc2)cc1` (stereo not drawn): the survivor count (dose: 60.0 mg/kg/injection, schedule: Q#A X014 (ip), vehicle: methylcellulose (MC)) was 1 of 6.
As to `COc1ccc2c(=O)oc3c(OC)cc(CCN(C)C)c4c(=O)oc1c2c34`, the survivor count was 0 of 6 (dose: 100.0 mg/kg/injection, schedule: Q01DX007 (ip), vehicle: water); 0 of 6 (dose: 200.0 mg/kg/injection, schedule: Q01DX007 (ip), vehicle: water); 0 of 6 (dose: 400.0 mg/kg/injection, schedule: Q01DX007 (ip), vehicle: water).
On to `O=[N+]([O-])c1cccc2nsnc12`, for which the survivor count (dose: 50.0 mg/kg/injection, schedule: Q01DX007 (ip), vehicle: carboxymethylcellulose (CMC)) is 2 of 6.
As for `CNCCc1ccccc1`, the survivor count reads like this: (dose: 166.0 mg/kg/injection, schedule: Q01DX007 (ip), vehicle: saline) 2 of 6; (dose: 250.0 mg/kg/injection, schedule: Q01DX007 (ip), vehicle: saline) 0 of 6; (dose: 375.0 mg/kg/injection, schedule: Q01DX007 (ip), vehicle: saline) 0 of 6.
On to `CCC1=C(c2cc(Cl)c3ccccc3c2OCC(=O)O)OC(CC)(C(=O)c2cc(Cl)c3ccccc3c2OCC(=O)O)CC1` (stereo not drawn), for which the survivor count runs as follows: (dose: 18.75 mg/kg/injection, schedule: Q01DX007 (ip), vehicle: other) 0 of 6; (dose: 25.0 mg/kg/injection, schedule: Q01DX007 (ip), vehicle: other) 0 of 6; (dose: 37.5 mg/kg/injection, schedule: Q01DX007 (ip), vehicle: other) 0 of 6; (dose: 50.0 mg/kg/injection, schedule: Q01DX007 (ip), vehicle: other) 0 of 6; (dose: 75.0 mg/kg/injection, schedule: Q01DX007 (ip), vehicle: other) 0 of 7; (dose: 111.0 mg/kg/injection, schedule: Q01DX007 (ip), vehicle: other) 0 of 7. Moreover, the survivor count is, setting by setting: (dose: 166.0 mg/kg/injection, schedule: Q01DX007 (ip), vehicle: other) 0 of 7 and 3 of 6; under setting [3], 0 of 6 and 0 of 7.
For the molecule `CCCCSc1ncnc2nc[nH]c12`, the survivor count (dose: 140.0 mg/kg/injection, schedule: Q01DX007 (ip), vehicle: carboxymethylcellulose (CMC)) is recorded as 3 of 6.
With `COC1=C(N)C(=O)c2nc(-c3nc(C(=O)O)c(C)c(-c4ccc(OC)c(OC)c4O)c3N)ccc2C1=O`, where the note is “dose: 0.4 mg/kg/injection, schedule: Q#A X014 (ip), vehicle: alkali diluted with CMC”, the survivor count is 3 of 6.
For the molecule `[Cl][Pt+2]([Cl])([Cl])[Cl].[Na+].[S-]c1ncnc2nc[nH]c12.[S-]c1ncnc2nc[nH]c12`, the survivor count reads like this: (dose: 150.0 mg/kg/injection, schedule: Q01DX007 (ip), vehicle: carboxymethylcellulose (CMC)) 2 of 6; (dose: 220.0 mg/kg/injection, schedule: Q01DX007 (ip), vehicle: carboxymethylcellulose (CMC)) 0 of 6; (dose: 330.0 mg/kg/injection, schedule: Q01DX007 (ip), vehicle: carboxymethylcellulose (CMC)) 0 of 6; (dose: 336.0 mg/kg/injection, schedule: Q01DX007 (ip), vehicle: carboxymethylcellulose (CMC)) 1 of 6; (dose: 500.0 mg/kg/injection, schedule: Q01DX007 (ip), vehicle: carboxymethylcellulose (CMC)) 2 of 6.
Turning to `C[C@@H]1C[C@](O)([C@@H](C)Cl)C(=O)O[C@@H]2CCN3CC=C(COC(=O)[C@]1(C)O)[C@H]23`, the survivor count by setting is: (dose: 50.0 mg/kg/injection, schedule: Q01DX007 (ip), vehicle: saline) 0 of 6; (dose: 100.0 mg/kg/injection, schedule: Q01DX007 (ip), vehicle: saline) 0 of 6; (dose: 200.0 mg/kg/injection, schedule: Q01DX007 (ip), vehicle: saline) 0 of 6.
As for `CN(C)c1ccc2c(c1)Cc1cc(N=C3C=CC(=O)O3)ccc1-2`, the survivor count by setting is: under setting [3], 3 of 6; (dose: 375.0 mg/kg/injection, schedule: Q01DX007 (ip), vehicle: other) 0 of 6.
For `CO[C@H]1C[C@H](O[C@H]2CC[C@]3(C=O)[C@H]4CC[C@]5(C)[C@@H](C6=CC(=O)OC6)CC[C@]5(O)[C@@H]4CC[C@]3(O)C2)O[C@H](C)[C@H]1O`, the survivor count (dose: 10.0 mg/kg/injection, schedule: Q01DX007 (sc), vehicle: saline) is 2 of 6 and the survivor count (dose: 20.0 mg/kg/injection, schedule: Q01DX007 (sc), vehicle: saline) is reported as 3 of 6.
For the molecule `O=c1cccc2n1CC1CNC[C@H]2C1`, the survivor count is reported as 0 of 6 (dose: 12.5 mg/kg/injection, schedule: Q01DX007 (ip), vehicle: saline) and 0 of 6 (dose: 25.0 mg/kg/injection, schedule: Q01DX007 (ip), vehicle: saline).
Take `CCCCCCCCCCCCCC1=C(O)C(=O)C(CC2=C(O)C(=O)C(CCCCCCCCCCCCC)=C(O)C2=O)=C(O)C1=O`: the T/C (dose: 12.5 mg/kg/injection, schedule: Q01DX007 (ip), vehicle: carboxymethylcellulose (CMC)) was 129 % of control.
